Our source for the binding values is doi:10.1101/2021.02.17.431740.

Test [1] has as its target T1, HA-tagged WT PEAK3 (HEK293 cells), Q6ZS72.
T1 chain: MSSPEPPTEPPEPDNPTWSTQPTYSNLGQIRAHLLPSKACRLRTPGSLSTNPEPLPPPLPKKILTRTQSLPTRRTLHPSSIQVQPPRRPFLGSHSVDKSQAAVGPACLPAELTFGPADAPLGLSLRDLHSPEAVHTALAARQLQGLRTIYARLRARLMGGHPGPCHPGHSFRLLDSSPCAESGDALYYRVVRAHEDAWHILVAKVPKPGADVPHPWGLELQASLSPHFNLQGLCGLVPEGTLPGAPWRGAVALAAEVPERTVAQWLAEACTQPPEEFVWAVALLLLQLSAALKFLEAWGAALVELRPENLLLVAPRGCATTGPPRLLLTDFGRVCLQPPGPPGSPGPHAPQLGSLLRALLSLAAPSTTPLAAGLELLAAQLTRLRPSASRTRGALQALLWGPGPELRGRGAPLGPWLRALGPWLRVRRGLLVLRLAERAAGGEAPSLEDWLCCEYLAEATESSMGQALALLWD
Description: co-IP. The settings on record: remark: other sources report otherwise.

Test [2] concerns the target T2, HA-tagged WT PEAK3 (HEK293 cells) (UniProt Q6ZS72).
T2 sequence: T1 chain
As to the kind of experiment: co-IP.

No constants are given. Whether binding was seen depends on the method and setting. Binding seen in cells or lysates may run through a third protein. Some results given as binding are weak or reduced against the parent protein; the word gives no strength. Sequences can lack the tags named with a protein.

B1: CrkII (HEK293 cells), P46108-1 1-304 (protein)
chain: MAGNFDSEERSSWYWGRLSRQEAVALLQGQRHGVFLVRDSSTSPGDYVLSVSENSRVSHYIINSSGPRPPVPPSPAQPPPGVSPSRLRIGDQEFDSLPALLEFYKIHYLDTTTLIEPVSRSRQGSGVILRQEEAEYVRALFDFNGNDEEDLPFKKGDILRIRDKPEEQWWNAEDSEGKRGMIPVPYVEKYRPASASVSALIGGNQEGSHPQPLGGPEPGPYAQPSVNTPLPNLQNGPIYARVIQKRVPNAYDKTALALEVGELVKVTKINVSGQWEGECNGKRGHFPFTHVRLLDQQNPDEDFS
On to B1, for which the binding entry in test [1] is on record as “binds”.

B2: HA-tagged WT PEAK3 (HEK293 cells) (protein, UniProt Q6ZS72 1-473)
chain: T1 chain
B2: the binding result in test [2] is “binds”.
